The list shows a part of the results.

Sequences of proteins named here, by UniProt entry; tags and fusion partners are left off.
UniProt Q0JBA9, entry or part of it: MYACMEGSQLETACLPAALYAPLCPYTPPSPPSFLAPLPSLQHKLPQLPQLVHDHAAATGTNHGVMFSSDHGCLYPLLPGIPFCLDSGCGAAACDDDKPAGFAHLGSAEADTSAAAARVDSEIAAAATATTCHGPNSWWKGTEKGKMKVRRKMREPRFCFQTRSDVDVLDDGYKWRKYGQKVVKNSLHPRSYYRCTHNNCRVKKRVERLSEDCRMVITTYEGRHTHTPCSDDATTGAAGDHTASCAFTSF

The experiment has as its target OsWRKY34 (Oryza sativa, UniProt Q0JBA9 1-250). Kind of experiment: protein-binding microarray (RPBM); PBS, 2% BSA, 51.3 ng/ul salmon testes DNA, 50 uM zinc acetate, 200 nM TF, 25 C, 1 h; high values mean tight binding. Particulars: protein: recombinant; tags: N-terminal polyhistidine and DsRed monomer fusion (pET32a); label: CyDye5-dUTP incorporated in the synthesized complementary strand; 3' TTTTT single-stranded linker to array surface; dsDNA, one strand shown. The gist of the method:
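Using Ni–NTA, transcription factors fused N-terminally to polyhistidine and DsRed were purified after expression in E. coli BL21-CodonPlus. These were incubated at 200 nM with a blocked, double-stranded custom Agilent array for 1 h at 25 °C in a buffer containing 50 µM zinc acetate, and the array was washed. The binding signal is per-feature fluorescence intensity (arbitrary units) on an Axon 4000B scanner.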
For “CGCTGGTCAAACCTATGGGTTATGTACTAATTTTGCCTATCGGAGTCACCTAGTGCAG”, the binding signal was 8640 fluorescence intensity (a.u.).
For “TGGCTGGTTACCCATCCTAGGCTCCCAGCGGTTTCTTGCACGGAGTCACCTAGTGCAG” the value was 8090 fluorescence intensity (a.u.); for “TGCGCATCGTCCGATCCCAACCGTCCATCCCAGATCGGACCGGAGTCACCTAGTGCAG”, 8180 fluorescence intensity (a.u.); for “GTGGCGAGGGAGGGCTTTTGGCTGAGAGTCGACGGCGGGGCGGAGTCACCTAGTGCAG”, 10500 fluorescence intensity (a.u.).
In the case of “TCTCTCCATCCCCTCACTCTTGGACACTTTGAGCTAAGCTCGGAGTCACCTAGTGCAG” it was 9530 fluorescence intensity (a.u.); in that of “TTCTTCTTCGTCTTCGTCTTCGTCTTCGTCTTCTTCTTCACGGAGTCACCTAGTGCAG”, 13200 fluorescence intensity (a.u.).
Turning to “CTCGCCGTCTTCCCCACCCTCACGCTCGCCTTCATCGCCGCGGAGTCACCTAGTGCAG”, the binding signal is 8610 fluorescence intensity (a.u.).
In the case of “GCAGCCAAACCCTCCACTCCTCGCTTCTCCGGTGGTTCTCCGGAGTCACCTAGTGCAG” it was 8660 fluorescence intensity (a.u.); in that of “CGGCTTTATCTCCGTCTCCAATCTCCTTCTACGACCAGACCGGAGTCACCTAGTGCAG”, 11500 fluorescence intensity (a.u.).
As for “ACCCTAGCCGCCACTCCGCCATTTCGGTAAGGTTTGCTGCCGGAGTCACCTAGTGCAG”, the binding signal is 10700 fluorescence intensity (a.u.).
On to “CTACACTGTCTTGCTCGCTCATTGTCTCTCTCTGCATTTGCGGAGTCACCTAGTGCAG”, for which the binding signal was 8580 fluorescence intensity (a.u.).
For “TGGCTGGTTGGGAGGGGACAGCACATGATGCTGTAGTTTTCGGAGTCACCTAGTGCAG” the value was 14600 fluorescence intensity (a.u.); for “TCTTCTCTCTTATCATTTATCTCATTAAAATATGTTTATACGGAGTCACCTAGTGCAG”, 8650 fluorescence intensity (a.u.).
For “CTATTTCCTTCTAGCTTCGCCCTGGGCTCGAGTATGCTTTCGGAGTCACCTAGTGCAG” the value was 8530 fluorescence intensity (a.u.); for “ACTGTGGTTATCTTGCTATCTCTCCTACTCGCTCTGTCAACGGAGTCACCTAGTGCAG”, 16500 fluorescence intensity (a.u.).
Regarding “GGTGCCAATATTACTGCTTCATCTGAATTTGTTCTTGATTCGGAGTCACCTAGTGCAG”, the binding signal was 9220 fluorescence intensity (a.u.).
For “TGCCATGCCATCCGACCGCCCCTCCCGCCGCGCCTAAAACCGGAGTCACCTAGTGCAG” the value was 8450 fluorescence intensity (a.u.); for “CAACTCCGCTTCTTTTATAATAGCCGTCCATACCCGCCCACGGAGTCACCTAGTGCAG”, 9100 fluorescence intensity (a.u.); for “CGCCGCGCGTACGTTTCGTCTTCGGCCTCGTCTCGGCGTGCGGAGTCACCTAGTGCAG”, 8870 fluorescence intensity (a.u.).
As to “CTTCCACACCGCAATCTCGCAACACATCAGCACACACCGCCGGAGTCACCTAGTGCAG”, the binding signal was 10300 fluorescence intensity (a.u.).
For “TTTGATCTCCTAGCTAGCTGTTGCACGTACGTCCCCTATACGGAGTCACCTAGTGCAG” the value was 9120 fluorescence intensity (a.u.).
For “GGTGATTCATATGCTGGCCCTATTCGAAGGCACTTGCTGCCGGAGTCACCTAGTGCAG”, the binding signal is 8600 fluorescence intensity (a.u.).
“CAGAACTCATAAACATGTACCTACTGTGTCCTTTTCGTTGCGGAGTCACCTAGTGCAG”: the binding signal was 9960 fluorescence intensity (a.u.).
For “CTATAACCCGCTGCTTTTCTCTCTTATCTTTTACCTCATTCGGAGTCACCTAGTGCAG” the value was 9380 fluorescence intensity (a.u.); for “CTTCAACTTTTGTCCATTTTCAGACGGTATTACTCTTGCACGGAGTCACCTAGTGCAG”, 9970 fluorescence intensity (a.u.); for “TCTTCCACTCCTCCTCTCTCTCTTGTCTCTCTCGCTCTTCCGGAGTCACCTAGTGCAG”, 10400 fluorescence intensity (a.u.).
For the sequence “CTACTTCCAAGTTCCTACCTATCAATTTCTCTCCTCCTCTCGGAGTCACCTAGTGCAG”, the binding signal was 8510 fluorescence intensity (a.u.).
For “CCCTCTACGTCGTTCTCGCGCCGCGACCGTCTTGGAGGCCCGGAGTCACCTAGTGCAG” the value was 9630 fluorescence intensity (a.u.); for “CTATCTTGTTTTTATTTCCACGTCCGCCACTGATTGACTACGGAGTCACCTAGTGCAG”, 12000 fluorescence intensity (a.u.).
In the case of “GGACGGGGAGGTGGGGCGCGGCGGCGATGATACTGGTGGCCGGAGTCACCTAGTGCAG” it was 10300 fluorescence intensity (a.u.); in that of “GGATGTGTTTGGTTGCATGCCTCAGAACGTATCAGATTCGCGGAGTCACCTAGTGCAG”, 8460 fluorescence intensity (a.u.); in that of “TGTACAGTAGTCATGTTTTGGGATTCTCTGTTTTTTTTTGCGGAGTCACCTAGTGCAG”, 8770 fluorescence intensity (a.u.).
For “CCATCCTGTGAGCCTCATAACTCTCGTCCTGTCTTTGCTACGGAGTCACCTAGTGCAG” the value was 12100 fluorescence intensity (a.u.); for “GCGGGTGGGTCTAGAGATTTTTTTTATTTGTTAATTGGATCGGAGTCACCTAGTGCAG”, 10400 fluorescence intensity (a.u.); for “TTCTAAATCGTAACCATTGTGTGTGTGTGTGGACATTTTCCGGAGTCACCTAGTGCAG”, 10800 fluorescence intensity (a.u.).
Take “GTTTCCTACTGTCCATTCTCTTGTACCTGTGATCCACATTCGGAGTCACCTAGTGCAG”: the binding signal was 8980 fluorescence intensity (a.u.).
Regarding “CCGTCGCTCGCTCCGGCCACTGTCCGCCCCGCTCCAATGCCGGAGTCACCTAGTGCAG”, the binding signal was 8780 fluorescence intensity (a.u.).
For “TTAATCTGTTACTACCATACACACCTATGCACTAAAATCACGGAGTCACCTAGTGCAG” the value was 8250 fluorescence intensity (a.u.).
For the sequence “GCTTTTTTGGTTCCGGATCGCATGTAACTTTTTTTTTATTCGGAGTCACCTAGTGCAG”, the binding signal was 11700 fluorescence intensity (a.u.).
Take “AACCAGTCGCCGCTCGCCACGTGGCACCCTCCACCTCCCTCGGAGTCACCTAGTGCAG”: the binding signal is 8250 fluorescence intensity (a.u.).
“CTGTTTTGTTCTTTCTTTTTTTTTCTTTTCTCCATATAAGCGGAGTCACCTAGTGCAG”: the binding signal was 12300 fluorescence intensity (a.u.).
In the case of “AACTATTTTTTTATGGGTTTGTTGTGTAGATCATGTAGCACGGAGTCACCTAGTGCAG” it was 11100 fluorescence intensity (a.u.).
In the case of “CCTTAGTCCTAGCTGTCGCCCTCCGTCTCATTCAGTCCTCCGGAGTCACCTAGTGCAG”, the binding signal is 9220 fluorescence intensity (a.u.).
In the case of “GGTAGCGCCTTGCCATTCACTGCGCAGAGCTTGCAAGCTTCGGAGTCACCTAGTGCAG” it was 10100 fluorescence intensity (a.u.); in that of “GTCGCTTTGGTTCAGATATTTCATTGGATTTTGCCTTGCCCGGAGTCACCTAGTGCAG”, 8750 fluorescence intensity (a.u.).
For the sequence “TCACCATGCACCATGGATCCCAATCTTGCCTTTTTCTTCTCGGAGTCACCTAGTGCAG”, the binding signal was 8710 fluorescence intensity (a.u.).
Turning to “GGCGTTTGCAACGTTGTCATGATTTTTTTTTTTTTTGGAACGGAGTCACCTAGTGCAG”, the binding signal was 8980 fluorescence intensity (a.u.).
For “GTAGTATTGTGTTTTGCAAGGAAGGAACAAGCCTTTAATTCGGAGTCACCTAGTGCAG” the value was 8380 fluorescence intensity (a.u.); for “ACCCTTCGTCACCCCTAACCCTAGGCTGAGTCATTCTCTTCGGAGTCACCTAGTGCAG”, 8460 fluorescence intensity (a.u.); for “ATCTAGCCTATCGCTCTTGTGTTCTCGGTGTGTACTTGGTCGGAGTCACCTAGTGCAG”, 16600 fluorescence intensity (a.u.).
In the case of “TCTTCACCGGCTGGGTTGTCGTTGCAGCTCGCCGGCACACCGGAGTCACCTAGTGCAG” it was 8420 fluorescence intensity (a.u.); in that of “GTGTCATCGTTGCTGGTCGCCTGATCGATCCCTGATGCTACGGAGTCACCTAGTGCAG”, 9170 fluorescence intensity (a.u.); in that of “ATTTGAATACAGTTTTGTTTTGTTGTCTAGATTCAGGGATCGGAGTCACCTAGTGCAG”, 8640 fluorescence intensity (a.u.).
“CCGCTCAGGATATCGTCTTGTTTTTCATATTCCCCATCTCCGGAGTCACCTAGTGCAG”: the binding signal is 11800 fluorescence intensity (a.u.).

The values are drawn from PMC7819943, “Rice protein-binding microarrays: a tool to detect cis-acting elements near promoter regions in rice”.
